Measurements: publication doi:10.1101/2024.04.12.589144
Results are given in words; binding and its absence hold for the method and conditions named. In cells and extracts the contact can be indirect. Some results given as binding are weak or reduced against the parent protein; the word gives no strength.

The chains behind the UniProt entries cited, without tags or fusion partners.
UniProt Q9HVV4: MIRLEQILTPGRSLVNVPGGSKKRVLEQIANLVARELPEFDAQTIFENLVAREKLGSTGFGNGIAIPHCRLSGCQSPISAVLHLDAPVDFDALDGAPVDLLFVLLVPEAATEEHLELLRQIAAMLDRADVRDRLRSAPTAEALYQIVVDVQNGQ
UniProt Q9HWS2: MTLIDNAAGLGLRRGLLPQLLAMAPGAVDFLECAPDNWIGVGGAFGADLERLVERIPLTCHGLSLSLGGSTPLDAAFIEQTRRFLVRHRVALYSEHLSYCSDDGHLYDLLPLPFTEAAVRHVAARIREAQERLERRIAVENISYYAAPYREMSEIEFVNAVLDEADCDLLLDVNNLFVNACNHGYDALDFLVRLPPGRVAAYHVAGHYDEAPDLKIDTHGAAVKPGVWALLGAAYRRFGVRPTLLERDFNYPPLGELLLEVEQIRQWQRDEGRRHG
UniProt P72139: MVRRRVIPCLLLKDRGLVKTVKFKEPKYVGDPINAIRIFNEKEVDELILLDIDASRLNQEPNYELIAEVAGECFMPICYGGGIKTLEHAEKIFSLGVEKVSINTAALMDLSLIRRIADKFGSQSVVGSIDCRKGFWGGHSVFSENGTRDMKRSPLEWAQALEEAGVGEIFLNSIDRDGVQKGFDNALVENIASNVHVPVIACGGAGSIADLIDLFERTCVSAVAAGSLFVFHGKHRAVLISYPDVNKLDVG
UniProt Q9HVV2: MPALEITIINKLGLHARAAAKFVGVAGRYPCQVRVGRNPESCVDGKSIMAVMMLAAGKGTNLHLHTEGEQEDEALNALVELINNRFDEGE

Legend:
Test in all cases: co-IP + pull-down
[1] = biological target: LPS biosynthesis protein WbpG (P. aeruginosa) (UniProt Q9HZ78)
[2] = biological target: PtsN, nitrogen regulatory protein with a phosphotransferase component (UniProt Q9HVV4)
[3] = biological target: Uncharacterized protein PA4106 (P. aeruginosa) (UniProt Q9HWS2)
[4] = biological target: T1, protein of unknown function YcaR (E. coli) (UniProt P0AAZ7)
T1 sequence: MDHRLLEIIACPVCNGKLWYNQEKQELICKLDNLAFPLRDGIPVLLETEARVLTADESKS

For “Putative imidazole glycerol phosphate synthase subunit hisF2 (from UniProt P72139 1-251)”, the binding [1] was “binds”.

“PtsH, histidine-phosphorylatable phosphocarrier protein (from UniProt Q9HVV2 1-90)” was tested, and the binding [2] was “no binding”.

With “putative transcriptional factor PA4105 (from UniProt Q9HWS3 1-251)” the binding [3] was “binds”.

B1: Ubiquinone biosynthesis C-methyltransferase UbiE (protein, UniProt P0A887 1-251)
chain: MVDKSQETTHFGFQTVAKEQKADMVAHVFHSVASKYDVMNDLMSFGIHRLWKRFTIDCSGVRRGQTVLDLAGGTGDLTAKFSRLVGETGKVVLADINESMLKMGREKLRNIGVIGNVEYVQANAEALPFPDNTFDCITISFGLRNVTDKDKALRSMYRVLKPGGRLLVLEFSKPIIEPLSKAYDAYSFHVLPRIGSLVANDADSYRYLAESIRMHPDQDTLKAMMQDAGFESVDYYNLTAGVVALHRGYKF
For B1, the binding [4] was “binds”.
